Marks after values point to notes of the source that are not given here.
Key:
[1] = Laboratory incubation under waterlogged condition: ammonia loss by closed-dynamic air flow system, then soil pH, exchangeable ammonium and available nitrate
Procedure: Laboratory Evaluation of Treatments Under Waterlogged
Upon maintaining soil water at 70% field capacity using distilled water, the treatments below were evaluated: • i. Soil only (T0) • ii. 2.02 g urea (T1) • iii. 2.02 g urea+175 mL peat soil water (T2).
The quantity of urea used was based on the standard recommendation for the test crop. These materials were thoroughly mixed on a reciprocal shaker at 170 rpm for 15 minutes to ensure they were uniformly mixed.
The daily loss of NH3 from urea was measured by using a closed-dynamic air flow system method (Siva et al., 1999; Ahmed et al., 2006a; Ahmed et al., 2006b). The system consisted of an exchange chamber of 500 mL conical flask containing 250 g soil sample and 250 mL conical flask containing 75 mL of boric acid which were both stoppered and fit with an inlet/outlet. The inlet of the chamber was connected to an air pump and the outlet was connected by polyethylene tubing which contains boric acid and indicator solution to trap ammonia gas (Ahmed et al., 2006a; Ahmed et al., 2006b). Air was passed through the chamber at the rate of 3.5/L/min/chamber. This rate of air flow was maintained throughout the incubation period using a Gilmont flow meter to measure and adjust the air flow when necessary. The released ammonia captured in a trapping solution which contains 75 mL of boric acid with bromocresol green and methyl red indicator was titrated with 0.1 M HCl to estimate the amount of NH3 (g) released. The entire incubation was conducted at room temperature. The boric acid indicator which was used to capture ammonia was replaced every 24 h during incubation for 13 days, a period when ammonia loss was less than 1% (Ahmed et al., 2006a, 2006b). After 13 days of incubation, soil samples were analyzed for pH, exchangeable ammonium and available nitrate. Soil pH was determined by the method previously stated. The method of Keeney and Nelson (1982) was used to extract soil exchangeable ammonium and available nitrate followed by steam distillation. […]

[2] = Laboratory incubation under non-waterlogged condition: ammonia loss by closed-dynamic air flow system, then soil pH, exchangeable ammonium and available nitrate
Procedure: Laboratory Evaluation of Treatments Under Non-waterlogged
The same set of treatments were prepared and mixed as previously outlined except that the liquid of the treatments were used to obtain field capacity of 70%.
The daily loss of NH3 from urea was measured by using a closed-dynamic air flow system method (Siva et al., 1999; Ahmed et al., 2006a; Ahmed et al., 2006b). The system consisted of an exchange chamber of 500 mL conical flask containing 250 g soil sample and 250 mL conical flask containing 75 mL of boric acid which were both stoppered and fit with an inlet/outlet. The inlet of the chamber was connected to an air pump and the outlet was connected by polyethylene tubing which contains boric acid and indicator solution to trap ammonia gas (Ahmed et al., 2006a; Ahmed et al., 2006b). Air was passed through the chamber at the rate of 3.5/L/min/chamber. This rate of air flow was maintained throughout the incubation period using a Gilmont flow meter to measure and adjust the air flow when necessary. The released ammonia captured in a trapping solution which contains 75 mL of boric acid with bromocresol green and methyl red indicator was titrated with 0.1 M HCl to estimate the amount of NH3 (g) released. The entire incubation was conducted at room temperature. The boric acid indicator which was used to capture ammonia was replaced every 24 h during incubation for 13 days, a period when ammonia loss was less than 1% (Ahmed et al., 2006a, 2006b). After 13 days of incubation, soil samples were analyzed for pH, exchangeable ammonium and available nitrate. Soil pH was determined by the method previously stated. The method of Keeney and Nelson (1982) was used to extract soil exchangeable ammonium and available nitrate followed by steam distillation. The experimental design was a completely randomized design with three replicates for each treatment. Analysis of variance was used to test treatment effects and means of treatments were compared using Duncan's test (SAS version 9.2).

Compound: NC(N)=O [Treatment T1, urea]
- NH4^−N (soil exchangeable ammonium) ([1]; at 13 days of incubation): 78.09^b ppm
- NO3^−N (soil available nitrate) ([1]; at 13 days of incubation): 22.80^b ppm
- Ammonia loss ([1]; total over 13 days of incubation, 250 g soil): 42.87^a %
- NH4^−N (soil exchangeable ammonium) ([2]; at 13 days of incubation): 85.80^c ppm
- NO3^−N (soil available nitrate) ([2]; at 13 days of incubation): 4.30^b ppm
- soil pH (water) ([2]; at 13 days of incubation): 7.68^a
- Ammonia loss ([2]; total over 13 days of incubation): 41.50^a %

Source: patent US9139485B2, “Plant treatment agent” (UNIVERSITI PUTRA MALAYSIA, priority 2011, dated 2015)
